This experiment addresses Complement receptor 1 (human (endogenous in neutrophils)) (UniProt P17927). The experiment in a line: flow cytometry on cells; FITC-labelled 2.8-µm streptavidin beads loaded with C3b-PEG11-biotin, mixed 10:1 with human neutrophils, 15 min at 37 °C on a shaking platform, then fixed; neutrophils with or without pre-incubation with 25 µg/mL anti-CR1 (3D9) or anti-CR3 (ICRF44) blocking antibodies; only the binder purified. (A flow cytometer gives signals particle by particle.)

Amino acid sequences for entries named in this document (tags omitted). A change or cut given only in a name is not applied to a line headed by its entry. Residues count along the entry.
UniProt P17927, residues 42-2039: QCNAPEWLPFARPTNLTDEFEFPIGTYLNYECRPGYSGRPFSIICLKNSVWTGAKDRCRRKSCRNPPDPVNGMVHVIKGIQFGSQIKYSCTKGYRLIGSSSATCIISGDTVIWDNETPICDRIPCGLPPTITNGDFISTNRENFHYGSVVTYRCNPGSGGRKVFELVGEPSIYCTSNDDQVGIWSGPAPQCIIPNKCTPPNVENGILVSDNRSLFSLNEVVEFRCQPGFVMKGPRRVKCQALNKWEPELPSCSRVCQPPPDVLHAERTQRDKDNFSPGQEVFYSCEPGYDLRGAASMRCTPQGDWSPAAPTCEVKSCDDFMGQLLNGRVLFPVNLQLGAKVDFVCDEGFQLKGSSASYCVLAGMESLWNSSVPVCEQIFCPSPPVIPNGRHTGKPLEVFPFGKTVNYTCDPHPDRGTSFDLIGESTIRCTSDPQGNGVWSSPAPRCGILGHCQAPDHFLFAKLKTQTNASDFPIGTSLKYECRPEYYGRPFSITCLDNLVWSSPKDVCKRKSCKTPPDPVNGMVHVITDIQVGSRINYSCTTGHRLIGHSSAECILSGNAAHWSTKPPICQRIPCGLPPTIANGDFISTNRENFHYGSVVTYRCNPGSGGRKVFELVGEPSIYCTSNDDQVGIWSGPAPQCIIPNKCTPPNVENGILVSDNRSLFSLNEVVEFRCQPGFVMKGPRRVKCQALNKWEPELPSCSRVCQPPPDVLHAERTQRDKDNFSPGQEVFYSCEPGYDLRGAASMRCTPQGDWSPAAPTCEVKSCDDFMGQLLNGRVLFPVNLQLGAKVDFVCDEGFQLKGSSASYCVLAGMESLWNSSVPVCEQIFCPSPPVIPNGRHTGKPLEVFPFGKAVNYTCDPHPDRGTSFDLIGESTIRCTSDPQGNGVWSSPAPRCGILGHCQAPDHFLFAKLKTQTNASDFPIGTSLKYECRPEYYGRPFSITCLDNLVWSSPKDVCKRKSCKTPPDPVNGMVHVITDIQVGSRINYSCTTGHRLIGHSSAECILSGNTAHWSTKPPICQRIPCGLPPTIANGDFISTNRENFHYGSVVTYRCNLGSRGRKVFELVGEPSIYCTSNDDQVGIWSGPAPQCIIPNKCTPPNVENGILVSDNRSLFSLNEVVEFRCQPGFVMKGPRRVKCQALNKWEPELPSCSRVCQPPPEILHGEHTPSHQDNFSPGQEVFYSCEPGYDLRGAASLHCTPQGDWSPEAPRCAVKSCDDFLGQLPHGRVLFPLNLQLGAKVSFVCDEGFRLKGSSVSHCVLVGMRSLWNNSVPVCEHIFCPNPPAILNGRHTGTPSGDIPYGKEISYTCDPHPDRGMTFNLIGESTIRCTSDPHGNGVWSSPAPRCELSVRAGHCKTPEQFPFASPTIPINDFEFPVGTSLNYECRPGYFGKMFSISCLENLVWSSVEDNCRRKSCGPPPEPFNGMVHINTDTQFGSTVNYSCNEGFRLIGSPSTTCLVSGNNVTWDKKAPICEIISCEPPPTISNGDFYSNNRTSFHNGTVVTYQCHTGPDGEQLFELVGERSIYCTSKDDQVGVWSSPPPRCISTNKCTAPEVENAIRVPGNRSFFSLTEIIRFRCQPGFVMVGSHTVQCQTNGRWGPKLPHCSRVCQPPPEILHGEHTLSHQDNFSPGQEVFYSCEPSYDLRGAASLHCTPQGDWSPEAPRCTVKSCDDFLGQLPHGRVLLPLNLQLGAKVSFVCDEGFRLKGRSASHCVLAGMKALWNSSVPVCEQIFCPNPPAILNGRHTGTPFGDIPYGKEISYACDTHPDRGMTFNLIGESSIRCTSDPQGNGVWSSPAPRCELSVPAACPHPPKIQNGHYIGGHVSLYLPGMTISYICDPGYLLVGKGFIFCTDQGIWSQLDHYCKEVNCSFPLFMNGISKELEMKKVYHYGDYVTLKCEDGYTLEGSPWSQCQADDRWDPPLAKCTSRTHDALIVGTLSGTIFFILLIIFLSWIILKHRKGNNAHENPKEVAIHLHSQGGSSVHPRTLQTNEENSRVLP
UniProt P01024: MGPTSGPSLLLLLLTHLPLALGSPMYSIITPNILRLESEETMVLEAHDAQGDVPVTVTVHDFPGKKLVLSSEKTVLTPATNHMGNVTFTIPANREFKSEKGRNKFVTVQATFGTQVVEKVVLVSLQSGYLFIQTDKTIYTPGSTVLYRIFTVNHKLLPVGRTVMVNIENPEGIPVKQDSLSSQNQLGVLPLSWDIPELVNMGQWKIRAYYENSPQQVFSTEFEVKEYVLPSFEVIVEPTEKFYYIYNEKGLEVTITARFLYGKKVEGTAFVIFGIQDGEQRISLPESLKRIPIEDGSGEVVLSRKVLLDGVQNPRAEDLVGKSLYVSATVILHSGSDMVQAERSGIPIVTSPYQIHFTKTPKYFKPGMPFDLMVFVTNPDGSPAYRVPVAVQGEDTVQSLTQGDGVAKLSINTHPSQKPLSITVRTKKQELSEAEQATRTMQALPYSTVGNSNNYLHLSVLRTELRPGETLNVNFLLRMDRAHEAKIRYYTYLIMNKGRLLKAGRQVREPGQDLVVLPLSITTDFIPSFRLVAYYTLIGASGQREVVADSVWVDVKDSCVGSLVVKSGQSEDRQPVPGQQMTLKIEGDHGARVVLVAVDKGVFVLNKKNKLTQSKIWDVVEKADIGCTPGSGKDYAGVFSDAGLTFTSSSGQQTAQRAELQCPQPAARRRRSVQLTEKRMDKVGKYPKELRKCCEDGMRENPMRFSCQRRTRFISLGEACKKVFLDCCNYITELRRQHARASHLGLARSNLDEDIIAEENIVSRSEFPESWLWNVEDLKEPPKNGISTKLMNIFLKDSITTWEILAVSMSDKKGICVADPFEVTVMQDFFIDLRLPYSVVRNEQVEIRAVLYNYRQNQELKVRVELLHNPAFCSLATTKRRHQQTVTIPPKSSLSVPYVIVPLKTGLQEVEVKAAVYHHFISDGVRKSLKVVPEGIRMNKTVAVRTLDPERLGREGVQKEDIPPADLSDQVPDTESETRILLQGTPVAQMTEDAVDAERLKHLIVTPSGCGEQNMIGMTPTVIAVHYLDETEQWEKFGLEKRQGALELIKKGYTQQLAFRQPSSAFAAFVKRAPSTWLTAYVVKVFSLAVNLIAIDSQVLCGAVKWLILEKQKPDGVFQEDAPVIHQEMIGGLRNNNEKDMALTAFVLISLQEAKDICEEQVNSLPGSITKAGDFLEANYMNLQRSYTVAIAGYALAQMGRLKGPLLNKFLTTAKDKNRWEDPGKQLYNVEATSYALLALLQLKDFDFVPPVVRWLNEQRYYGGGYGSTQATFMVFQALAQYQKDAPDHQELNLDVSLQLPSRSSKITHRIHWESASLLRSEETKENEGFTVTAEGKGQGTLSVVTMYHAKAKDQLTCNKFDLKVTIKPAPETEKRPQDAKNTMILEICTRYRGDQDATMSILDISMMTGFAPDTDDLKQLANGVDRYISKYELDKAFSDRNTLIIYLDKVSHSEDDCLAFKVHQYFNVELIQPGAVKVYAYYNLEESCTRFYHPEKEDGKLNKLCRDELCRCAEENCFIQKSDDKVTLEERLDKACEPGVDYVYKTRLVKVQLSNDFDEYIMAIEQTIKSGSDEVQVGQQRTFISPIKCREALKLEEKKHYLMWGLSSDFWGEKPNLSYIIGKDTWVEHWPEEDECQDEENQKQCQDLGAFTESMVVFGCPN

No constants are given. Whether binding was seen depends on the method and setting. Some results given as binding are weak or reduced against the parent protein; the word gives no strength.

Regarding “C3b-PEG11-biotin (from UniProt P01024 23-667; P01024 749-1663)”, the binding result is listed as “binds”.

Source of the values: PMC9822988.
